In publication PMC7862700:
The entries are a selection whose mix differs from that of the whole data set. For part of these data: At the low end of the ranking the order means little. Some of the results follow. For part of these data: The exact form of the protein is not confirmed.

What was measured:
Assay in all cases: DAPPL (digital affinity profiling via proximity ligation, sequencing)
Conditions in all cases: 10 mM Tris-HCl pH 7.5, 50 mM NaCl, 1 mM DTT, 4% glycerol, room temperature, 30 min; GST-TFs on glutathione beads, 16-mer random dsDNA library, 0.1% …; high values mean tight binding; double strand, one strand shown; scale: fold enrichment (6-mer frequency, TF over GST control)
[1] = target: T1, GABPA (UniProt Q06546)
T1 sequence: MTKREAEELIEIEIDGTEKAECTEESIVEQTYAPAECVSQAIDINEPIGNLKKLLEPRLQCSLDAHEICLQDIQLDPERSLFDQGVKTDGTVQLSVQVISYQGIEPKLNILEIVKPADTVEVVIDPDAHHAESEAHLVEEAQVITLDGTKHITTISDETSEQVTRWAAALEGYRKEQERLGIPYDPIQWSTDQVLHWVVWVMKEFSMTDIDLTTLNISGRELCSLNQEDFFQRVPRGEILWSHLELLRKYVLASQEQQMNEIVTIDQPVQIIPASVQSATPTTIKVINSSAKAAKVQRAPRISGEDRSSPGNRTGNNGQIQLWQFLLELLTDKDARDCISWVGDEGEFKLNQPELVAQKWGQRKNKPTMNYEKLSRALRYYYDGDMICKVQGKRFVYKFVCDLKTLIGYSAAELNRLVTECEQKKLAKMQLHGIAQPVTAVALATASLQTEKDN

[2] = target: T2, ETS1 (UniProt P14921)
T2 sequence: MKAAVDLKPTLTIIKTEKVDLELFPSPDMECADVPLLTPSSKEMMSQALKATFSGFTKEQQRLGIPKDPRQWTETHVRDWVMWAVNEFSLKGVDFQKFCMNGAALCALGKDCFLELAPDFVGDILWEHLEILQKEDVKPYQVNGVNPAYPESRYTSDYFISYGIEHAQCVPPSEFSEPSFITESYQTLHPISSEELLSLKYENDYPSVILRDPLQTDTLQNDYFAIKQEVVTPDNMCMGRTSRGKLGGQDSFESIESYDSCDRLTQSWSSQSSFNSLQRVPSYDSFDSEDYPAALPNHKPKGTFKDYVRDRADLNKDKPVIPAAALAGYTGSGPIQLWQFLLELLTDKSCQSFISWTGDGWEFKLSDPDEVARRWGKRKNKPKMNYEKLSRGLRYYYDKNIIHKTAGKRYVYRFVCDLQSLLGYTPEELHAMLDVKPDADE

[3] = target: T3, SPDEF (UniProt O95238)
T3 sequence: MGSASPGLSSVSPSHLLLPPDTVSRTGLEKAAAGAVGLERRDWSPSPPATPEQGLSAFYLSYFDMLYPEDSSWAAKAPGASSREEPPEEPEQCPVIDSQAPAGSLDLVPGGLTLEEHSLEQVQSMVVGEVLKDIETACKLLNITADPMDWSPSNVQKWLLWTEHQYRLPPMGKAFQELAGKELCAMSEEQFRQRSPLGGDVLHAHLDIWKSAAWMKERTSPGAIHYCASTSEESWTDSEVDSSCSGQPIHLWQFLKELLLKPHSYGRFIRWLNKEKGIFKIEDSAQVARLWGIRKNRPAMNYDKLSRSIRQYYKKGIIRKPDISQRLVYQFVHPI

| Sequence | binding signal [1] | binding signal [2] | binding signal [3] |
| --- | --- | --- | --- |
| GGGCAG | 0.548 | 0.537 | 0.549 |
| ACGGAC | 0.766 | 0.889 | 0.945 |
| GTGCCA | 0.785 | 0.783 | 0.752 |
| GGTCGA | 0.766 | 0.748 | 0.794 |
| GGTGGA | 0.608 | 0.638 | 0.545 |
| AGGTAC | 0.949 | 0.935 | 0.936 |
| GATAGA | 0.804 | 0.779 | 0.83 |
| GTGAGG | 0.257 | 0.245 | 0.229 |
| TGAGGC | 0.469 | 0.481 | 0.426 |
| ATCAGT | 0.835 | 0.805 | 0.909 |
| GCGAGG | 0.602 | 0.605 | 0.627 |
| TCAGGC | 0.691 | 0.753 | 0.731 |
| GAGCCA | 0.605 | 0.508 | 0.515 |
| AAGAGC | 0.881 | 0.923 | 0.772 |
| TGTGTC | 0.686 | 0.751 | 0.843 |
| GGGGGC | 0.642 | 0.599 | 0.583 |
| AGATAC | 0.903 | 0.924 | 0.939 |
| AGTCAA | 0.612 | 0.621 | 0.57 |
| TCAGTC | 0.62 | 0.573 | 0.611 |
| GGTGGG | 0.624 | 0.592 | 0.675 |

| Sequence | binding signal [1] | binding signal [2] | binding signal [3] |
| --- | --- | --- | --- |
| GTGTCA | 0.842 | 0.799 | 0.799 |
| ACGTGG | 0.593 | 0.551 | 0.524 |
| CGGCCG | 0.86 | 0.804 | 0.91 |
| GTGCGG | 0.623 | 0.649 | 0.614 |
| TCGCAG | 0.962 | 0.952 | 0.865 |
| GGCAGA | 0.668 | 0.632 | 0.583 |
| GAGTTG | 0.495 | 0.535 | 0.456 |
| ACCGGG | 0.518 | 0.476 | 0.65 |
| GAGATT | 0.742 | 0.668 | 0.676 |
| GGTGAC | 0.832 | 0.762 | 0.843 |
| GTGAAT | 0.872 | 0.834 | 0.771 |
| GGGGAT | 0.681 | 0.646 | 0.653 |
| AGGTCG | 0.528 | 0.522 | 0.514 |
| GTGAGA | 0.323 | 0.306 | 0.297 |
| AGGACG | 0.506 | 0.476 | 0.523 |
| GGGCGC | 0.619 | 0.54 | 0.587 |
| CCAGTG | 0.467 | 0.492 | 0.437 |
| GTAGGG | 0.697 | 0.729 | 0.699 |
| CGTTGA | 0.733 | 0.79 | 0.849 |
| TGTCGG | 0.326 | 0.352 | 0.41 |

Single records (already shown). Values in the order: binding signal [1]	binding signal [2]	binding signal [3]
CCAGTG in the list: 0.467	0.492	0.437
GTAGGG in the list: 0.697	0.729	0.699

Later entries

| Sequence | binding signal [1] | binding signal [2] | binding signal [3] |
| --- | --- | --- | --- |
| GGCACA | 0.823 | 0.811 | 0.839 |
| ACGGGT | 0.794 | 0.925 | 0.898 |
| GCGCAA | 0.859 | 0.873 | 0.827 |
| AAGAGA | 0.898 | 0.815 | 0.834 |
| CCGGGC | 0.915 | 0.762 | 1.05 |
| AGCGGA | 0.81 | 0.793 | 0.81 |
| CGCATG | 0.658 | 0.622 | 0.601 |
| GGAGCA | 0.492 | 0.447 | 0.474 |
| CGGTGA | 0.502 | 0.452 | 0.456 |
| CAAGTG | 0.798 | 0.735 | 0.714 |
| AGCGAG | 0.655 | 0.628 | 0.656 |
| AGGGGT | 0.907 | 0.75 | 0.789 |
| TAAGTG | 0.783 | 0.801 | 0.794 |
| GAGCTG | 0.694 | 0.694 | 0.766 |
| GAGGTT | 0.777 | 0.772 | 0.756 |
| GCAGTT | 0.926 | 0.788 | 0.898 |
| CCGTGC | 0.629 | 0.576 | 0.502 |
| CCAGGG | 0.627 | 0.566 | 0.561 |
| GCCGTA | 0.918 | 0.842 | 0.847 |
| GGTGAG | 0.349 | 0.342 | 0.345 |
